# Laboratory results as given in PubChem BioAssay AID180 (DTP/NCI, 2004).
# The list shows only some results of the screen, not a fair sample: it gathers tests that were run many times, whatever their T/C, doses with no T/C, and many T/C values between a quarter and a half above the control. Other doses and runs of a compound stand elsewhere. T/C is the treated group as % of the vehicle group. Schedules are NCI's codes, taken here to give the interval after Q, in days (D) or hours (H), and the number of doses after X. Some T/C values carry the count of animals alive at the toxicity check (mostly the fifth day); where none is given, no animal had died by that day. Some doses have a count of surviving animals in place of a T/C: the source holds a T/C of zero for them, seemingly a mark for toxic or unscored doses. Survivors were counted at the toxicity check, usually on the fifth day, unless a day is given; later deaths do not show.
# Tested on: BDF1 mice, Adenocarcinoma 755 s.c., tumor weight T/C
# Experiment: NCI In Vivo Anticancer Drug Screen. Data for tumor model Adenocarcinoma 755 (subcutaneous) in B6D2F1 (BDF1) mice
# Conditions: T/C endpoint: mean tumor weight, higher T/C = larger tumour; for T/C: evaluated on day 12
# Method in brief: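 Compound activity was tested in mice carrying transplanted tumors. Survival or tumor size was measured, and each value is the treated-group measurement divided by that of the vehicle-treated control group (T/C).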
# [1] = dose: 100.0 mg/kg/injection, schedule: Q01DX011 (ip), vehicle: carboxymethylcellulose (CMC)
# [2] = dose: 125.0 mg/kg/injection, schedule: Q01DX011 (ip), vehicle: carboxymethylcellulose (CMC)
# [3] = dose: 50.0 mg/kg/injection, schedule: Q01DX011 (ip), vehicle: water
# [4] = dose: 15.0 mg/kg/injection, schedule: Q01DX011 (ip), vehicle: methylcellulose (MC)
compound,measurement,setting,value
Nc1ncnc2c1ccn2C1OC(CO)C(O)C1O (stereo not drawn),survivor count,"dose: 1.5 mg/kg/injection, schedule: Q01DX011 (ip), vehicle: carboxymethylcellulose (CMC)",3 of 10
CCCn1cnc2c(=S)nc[nH]c21,T/C,"dose: 0.5 mg/kg/injection, schedule: Q01DX011 (ip), vehicle: carboxymethylcellulose (CMC)",138 % of control [9 of 10 alive]
same,survivor count,[1],0 of 10
same,survivor count,[2],3 of 10
same,survivor count,"dose: 250.0 mg/kg/injection, schedule: Q01DX011 (ip), vehicle: carboxymethylcellulose (CMC)",0 of 10
CN(Cc1cnc2nc(N)nc(N)c2n1)c1ccc(C(=O)N[C@@H](CCC(=O)O)C(=O)O)cc1,survivor count,"dose: 2.5 mg/kg/injection, schedule: Q01DX011 (ip), vehicle: carboxymethylcellulose (CMC)",3 of 10
same,survivor count,"dose: 3.0 mg/kg/injection, schedule: Q01DX011 (ip), vehicle: carboxymethylcellulose (CMC)",1 of 10
same,survivor count,"dose: 3.5 mg/kg/injection, schedule: Q01DX011 (ip), vehicle: carboxymethylcellulose (CMC)",2 of 10
same,survivor count,"dose: 4500.0 micrograms/kg/injection, schedule: Q01DX011 (ip), vehicle: carboxymethylcellulose (CMC)",3 of 10
COc1ccc2c(c1)/C(=C/CCN(C)C)c1ccccc1S2,survivor count,"dose: 30.0 mg/kg/injection, schedule: Q01DX011 (ip), vehicle: methylcellulose (MC)",4 of 10
CC(C)(CBr)C(=O)N1CCN(C(=O)C(C)(C)CBr)CC1,survivor count,"dose: 28.0 mg/kg/injection, schedule: Q01DX011 (ip), vehicle: methylcellulose (MC)",6 of 10
same,survivor count,"dose: 57.0 mg/kg/injection, schedule: Q01DX011 (ip), vehicle: methylcellulose (MC)",2 of 10
same,survivor count,"dose: 113.0 mg/kg/injection, schedule: Q01DX011 (ip), vehicle: methylcellulose (MC)",1 of 10
C[C@H]1C[C@@H]2[C@H]([C@@H](O)C[C@@]3(C)[C@H]2CC[C@]3(O)C(=O)CO)[C@@]2(C)C=CC(=O)C=C12,survivor count,"dose: 114.0 mg/kg/injection, schedule: Q01DX011 (sc), vehicle: water",6 of 10
same,survivor count,"dose: 115.0 mg/kg/injection, schedule: Q01DX011 (sc), vehicle: steroid suspending solution",6 of 10
same,survivor count,"dose: 460.0 mg/kg/injection, schedule: Q01DX011 (sc), vehicle: steroid suspending solution",2 of 10
C=C(C)C(=O)OCC1CO1 (stereo not drawn),T/C,"dose: 100.0 mg/kg/injection, schedule: Q01DX006 (ip), vehicle: water",126 % of control
same,survivor count,"dose: 250.0 mg/kg/injection, schedule: Q01DX011 (ip), vehicle: other",2 of 10
same,survivor count,"dose: 300.0 mg/kg/injection, schedule: Q01DX011 (oral), vehicle: other",4 of 10
Cc1nc(N2CC2)nc(N2CC2)c1[N+](=O)[O-],survivor count,"dose: 4.5 mg/kg/injection, schedule: Q01DX011 (ip), vehicle: methylcellulose (MC)",6 of 10
CN(C)c1ccc(/C=C\c2ccnc3ccccc23)cc1,T/C,[3],129 % of control
same,survivor count,"dose: 200.0 mg/kg/injection, schedule: Q01DX011 (ip), vehicle: water",0 of 10
Oc1ccc2ccccc2c1N=Nc1ccccc1,survivor count,"dose: 400.0 mg/kg/injection, schedule: Q01DX011 (ip), vehicle: saline",2 of 10
CCCNc1ncnc2c1cnn2C1CCCCO1 (stereo not drawn),survivor count,"dose: 25.0 mg/kg/injection, schedule: Q01DX011 (ip), vehicle: methylcellulose (MC)",1 of 10
CCCCNc1nc(N)nc(Nc2ccc(Br)cc2)c1N=O,survivor count,"dose: 500.0 mg/kg/injection, schedule: Q01DX011 (ip), vehicle: methylcellulose (MC)",5 of 10
CC(=O)OCC(=O)[C@@]1(O)CC[C@H]2[C@@H]3CCC4=CC(=O)[C@H](C)C[C@]4(C)[C@@]3(F)[C@@H](O)C[C@@]21C,survivor count,"dose: 60.0 mg/kg/injection, schedule: Q01DX011 (sc), vehicle: steroid suspending solution",4 of 10
Nc1ccc(C(=O)O)c(O)c1,T/C,"dose: 70.53 mg/kg/injection, schedule: Q01DX011 (ip), vehicle: carboxymethylcellulose (CMC)",126 % of control [9 of 10 alive]
COC1C(OC(=O)/C=C/C=C/C=C/C=C/C(=O)O)CCC2(CO2)C1C1(C)OC1CC=C(C)C (stereo not drawn),survivor count,"dose: 80.0 mg/kg/injection, schedule: Q01DX011 (ip), vehicle: methylcellulose (MC)",3 of 10
CC(C)=NOC(N)=O,T/C,[3],137 % of control
Nc1nc(-c2cccnc2)nc(N)c1N=O,T/C,[4],129 % of control [9 of 10 alive]
Cc1ccc(N=S=O)cc1,survivor count,"dose: 250.0 mg/kg/injection, schedule: Q01DX011 (ip), vehicle: saline",0 of 10
[I][Hg][CH2]C1OC2CCC1C[CH]2[Hg][I] (stereo not drawn),survivor count,"dose: 12.0 mg/kg/injection, schedule: Q01DX011 (ip), vehicle: carboxymethylcellulose (CMC)",4 of 10
same,survivor count,"dose: 25.0 mg/kg/injection, schedule: Q01DX011 (ip), vehicle: carboxymethylcellulose (CMC)",0 of 10
same,survivor count,"dose: 50.0 mg/kg/injection, schedule: Q01DX011 (ip), vehicle: carboxymethylcellulose (CMC)",0 of 10
same,survivor count,[1],0 of 10
same,survivor count,"dose: 200.0 mg/kg/injection, schedule: Q01DX011 (ip), vehicle: carboxymethylcellulose (CMC)",0 of 10
CCc1c(Cl)nc(N)nc1Nc1ccc(Br)cc1,T/C,[4],131 % of control [8 of 10 alive]
Cn1c(N)c(N=O)c(=O)n(C)c1=O,survivor count,"dose: 20.0 mg/kg/injection, schedule: Q01DX011 (ip), vehicle: water",4 of 10
same,survivor count,"dose: 40.0 mg/kg/injection, schedule: Q01DX011 (ip), vehicle: water",3 of 10
same,survivor count,"dose: 80.0 mg/kg/injection, schedule: Q01DX011 (ip), vehicle: water",3 of 10
same,T/C,[2],139 % of control
same,T/C,"dose: 175.0 mg/kg/injection, schedule: Q01DX011 (oral), vehicle: methylcellulose (MC)",135 % of control [8 of 10 alive]
same,T/C,"dose: 350.0 mg/kg/injection, schedule: Q01DX011 (oral), vehicle: methylcellulose (MC)",136 % of control [9 of 10 alive]
same,survivor count,"dose: 400.0 mg/kg/injection, schedule: Q01DX011 (ip), vehicle: carboxymethylcellulose (CMC)",1 of 10
same,survivor count,"dose: 600.0 mg/kg/injection, schedule: Q01DX011 (ip), vehicle: carboxymethylcellulose (CMC)",1 of 10
same,survivor count,"dose: 700.0 mg/kg/injection, schedule: Q01DX011 (oral), vehicle: methylcellulose (MC)",6 of 10
same,survivor count,"dose: 2100.0 mg/kg/injection, schedule: Q01DX011 (oral), vehicle: methylcellulose (MC)",5 of 16
same,survivor count,"dose: 2800.0 mg/kg/injection, schedule: Q01DX011 (oral), vehicle: methylcellulose (MC)",7 of 16
